# Data: the supplement of paper PMC5355238
# Where a name gives a salt, the structure may show the parent alone. This is one part of the list. Most values lie at the level of the controls, where differences are scatter.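 Using flow cytometry, the assay measures the median γH2AX antibody signal in S-phase Reh cells (a human leukemia line). Each score is the number of standard deviations from the median difference of paired plate sets. Candidate hits scored above 2.5; compounds scoring below -2 lowered MK1775-induced damage.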
# Test system: Reh
# Experiment: Z' of S-phase gammaH2AX difference (drug + MK1775 minus drug alone) (Z-score); higher = stronger synergistic S-phase DNA damage with MK1775
# Settings: MK1775 concentration 400 nM; first compound 10 µM; 4 h
row,SMILES,Z' of S-phase gammaH2AX difference (Z-score)
1,CCCN1C[C@H](CSC)C[C@@H]2c3cccc4[nH]cc(c34)C[C@H]21 [Pergolide methanesulfonate] + C=CCn1c(=O)c2cnc(Nc3ccc(N4CCN(C)CC4)cc3)nc2n1-c1cccc(C(C)(C)O)n1 [MK1775],inactive: -0.767
2,N.N.[Cl][Pt][Cl] [Cisplatin] + C=CCn1c(=O)c2cnc(Nc3ccc(N4CCN(C)CC4)cc3)nc2n1-c1cccc(C(C)(C)O)n1 [MK1775],inactive: 0.156
3,Oc1ccc2c3c1O[C@H]1c4[nH]c5c(c4C[C@@]4(O)[C@@H](C2)N(CC2CC2)CC[C@]314)C[C@@]1(O)[C@H]2Cc3ccc(O)c4c3[C@@]1(CCN2CC1CC1)[C@H]5O4 [nor-Binaltorphimine dihydrochloride] + C=CCn1c(=O)c2cnc(Nc3ccc(N4CCN(C)CC4)cc3)nc2n1-c1cccc(C(C)(C)O)n1 [MK1775],inactive: 1.15
4,C[N+](C)(C)CC#CCOC(=O)Nc1cccc(Cl)c1 + C=CCn1c(=O)c2cnc(Nc3ccc(N4CCN(C)CC4)cc3)nc2n1-c1cccc(C(C)(C)O)n1 [MK1775],inactive: 0.251
5,CN1C[C@@H](NS(=O)(=O)N(C)C)C[C@@H]2c3cccc4c3c(cn4C)C[C@H]21 [Mesulergine hydrochloride] + C=CCn1c(=O)c2cnc(Nc3ccc(N4CCN(C)CC4)cc3)nc2n1-c1cccc(C(C)(C)O)n1 [MK1775],inactive: -0.17
6,Cc1ncc(CNC(=O)N(CCCl)N=O)c(N)n1 [Nimustine hydrochloride] + C=CCn1c(=O)c2cnc(Nc3ccc(N4CCN(C)CC4)cc3)nc2n1-c1cccc(C(C)(C)O)n1 [MK1775],inactive: 0.131
7,COc1ccc2[nH]cc(CCN)c2c1 [O-Methylserotonin hydrochloride] + C=CCn1c(=O)c2cnc(Nc3ccc(N4CCN(C)CC4)cc3)nc2n1-c1cccc(C(C)(C)O)n1 [MK1775],inactive: -0.471
8,"COc1ccc2c3c1O[C@H]1C(=O)CC[C@@]4(O)C(C2)N(CC2CC2)CCC314 (single isomer, unassigned; (-)) [(-)-3-Methoxynaltrexone hydrochloride] + C=CCn1c(=O)c2cnc(Nc3ccc(N4CCN(C)CC4)cc3)nc2n1-c1cccc(C(C)(C)O)n1 [MK1775]",inactive: 0.446
9,CC[C@@]1(O)C(=O)OCc2c1cc1n(c2=O)Cc2cc3ccccc3nc2-1 [(S)-(+)-Camptothecin] + C=CCn1c(=O)c2cnc(Nc3ccc(N4CCN(C)CC4)cc3)nc2n1-c1cccc(C(C)(C)O)n1 [MK1775],active: 11.1
10,Clc1cccc(N2CCNCC2)c1 [1-(3-Chlorophenyl)piperazine dihydrochloride] + C=CCn1c(=O)c2cnc(Nc3ccc(N4CCN(C)CC4)cc3)nc2n1-c1cccc(C(C)(C)O)n1 [MK1775],inactive: 0.484
11,C#C[C@]1(O)CC[C@H]2[C@@H]3CCC4=Cc5nc6nc7ccccc7n6cc5C[C@]4(C)[C@H]3CC[C@@]21C + C=CCn1c(=O)c2cnc(Nc3ccc(N4CCN(C)CC4)cc3)nc2n1-c1cccc(C(C)(C)O)n1 [MK1775],inactive: -0.218
12,c1ccc2nc(N3CCNCC3)ccc2c1 [Quipazine dimaleate] + C=CCn1c(=O)c2cnc(Nc3ccc(N4CCN(C)CC4)cc3)nc2n1-c1cccc(C(C)(C)O)n1 [MK1775],inactive: 0.539
13,C[N+](C)(C)CCCCCCCCCC[N+](C)(C)C [Decamethonium dibromide] + C=CCn1c(=O)c2cnc(Nc3ccc(N4CCN(C)CC4)cc3)nc2n1-c1cccc(C(C)(C)O)n1 [MK1775],inactive: 0.44
14,"CC1C2Cc3ccc(O)cc3C1(C)CCN2CC1CC1 (single isomer, unassigned; (+)) [(+)-Cyclazocine] + C=CCn1c(=O)c2cnc(Nc3ccc(N4CCN(C)CC4)cc3)nc2n1-c1cccc(C(C)(C)O)n1 [MK1775]",inactive: -0.11
15,CN1C[C@H](C(=O)N[C@]2(C)O[C@@]3(O)[C@@H]4CCCN4C(=O)[C@H](Cc4ccccc4)N3C2=O)C[C@@H]2c3cccc4[nH]cc(c34)C[C@H]21 [Dihydroergotamine methanesulfonate] + C=CCn1c(=O)c2cnc(Nc3ccc(N4CCN(C)CC4)cc3)nc2n1-c1cccc(C(C)(C)O)n1 [MK1775],inactive: 0.338
16,O=C1NCN(c2ccccc2)C12CCN(CC1COc3ccccc3O1)CC2 (stereo unspecified) [Spiroxatrine] + C=CCn1c(=O)c2cnc(Nc3ccc(N4CCN(C)CC4)cc3)nc2n1-c1cccc(C(C)(C)O)n1 [MK1775],inactive: -0.17
17,C[N+]1(C)[C@@H]2CC[C@H]1C[C@@H](OC(=O)C(CO)c1ccccc1)C2 (stereo partly specified) [Atropine methyl nitrate] + C=CCn1c(=O)c2cnc(Nc3ccc(N4CCN(C)CC4)cc3)nc2n1-c1cccc(C(C)(C)O)n1 [MK1775],inactive: -0.0501
18,C[N+]1(C)[C@@H]2CC[C@H]1C[C@@H](OC(=O)C(CO)c1ccccc1)C2 (stereo partly specified) [Atropine methyl bromide] + C=CCn1c(=O)c2cnc(Nc3ccc(N4CCN(C)CC4)cc3)nc2n1-c1cccc(C(C)(C)O)n1 [MK1775],inactive: 0.244
19,CC(CCc1ccccc1)NC(C)C(O)c1ccc(O)cc1 (stereo unspecified) [Nylidrin hydrochloride] + C=CCn1c(=O)c2cnc(Nc3ccc(N4CCN(C)CC4)cc3)nc2n1-c1cccc(C(C)(C)O)n1 [MK1775],inactive: -0.243
20,"Cc1c(C(=O)c2cccc3ccccc23)c2cccc3c2n1[C@H](CN1CCOCC1)CO3 [( R)-(+)-WIN 55,212-2 mesylate] + C=CCn1c(=O)c2cnc(Nc3ccc(N4CCN(C)CC4)cc3)nc2n1-c1cccc(C(C)(C)O)n1 [MK1775]",inactive: -1.13
21,CCN(CC)C(=O)NC1C=C2c3cccc4[nH]cc(c34)CC2N(C)C1 (stereo not drawn) [S-(-)-Lisuride] + C=CCn1c(=O)c2cnc(Nc3ccc(N4CCN(C)CC4)cc3)nc2n1-c1cccc(C(C)(C)O)n1 [MK1775],inactive: 0.291

# Reformatted with tabs: part of the list above.
row	SMILES	Z' of S-phase gammaH2AX difference (Z-score)
14	CC1C2Cc3ccc(O)cc3C1(C)CCN2CC1CC1 (single isomer, unassigned; (+)) [(+)-Cyclazocine] + C=CCn1c(=O)c2cnc(Nc3ccc(N4CCN(C)CC4)cc3)nc2n1-c1cccc(C(C)(C)O)n1 [MK1775]	inactive: -0.11
15	CN1C[C@H](C(=O)N[C@]2(C)O[C@@]3(O)[C@@H]4CCCN4C(=O)[C@H](Cc4ccccc4)N3C2=O)C[C@@H]2c3cccc4[nH]cc(c34)C[C@H]21 [Dihydroergotamine methanesulfonate] + C=CCn1c(=O)c2cnc(Nc3ccc(N4CCN(C)CC4)cc3)nc2n1-c1cccc(C(C)(C)O)n1 [MK1775]	inactive: 0.338
